These are yes or no findings as the source states them, for the method shown. Binding seen in cells or lysates may run through a third protein. Some binding calls cover weakened binding; strength is not graded here.
T1: acetyl-CoA acetyltransferase 1 (human (endogenous in LNCaP and PC3)) (UniProt P24752)
T1 sequence: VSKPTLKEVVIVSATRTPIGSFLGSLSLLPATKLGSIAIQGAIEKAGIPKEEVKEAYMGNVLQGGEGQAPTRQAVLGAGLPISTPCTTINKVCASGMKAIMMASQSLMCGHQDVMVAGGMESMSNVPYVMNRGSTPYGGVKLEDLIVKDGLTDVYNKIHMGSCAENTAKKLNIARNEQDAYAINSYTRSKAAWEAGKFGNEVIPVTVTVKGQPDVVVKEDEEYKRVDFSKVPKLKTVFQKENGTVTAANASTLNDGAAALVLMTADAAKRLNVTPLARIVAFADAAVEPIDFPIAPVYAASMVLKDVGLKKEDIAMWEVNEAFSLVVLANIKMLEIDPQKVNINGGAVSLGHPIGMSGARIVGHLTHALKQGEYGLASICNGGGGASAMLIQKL

Chains of the proteins cited; added tags and fusions are not shown.
UniProt P35637: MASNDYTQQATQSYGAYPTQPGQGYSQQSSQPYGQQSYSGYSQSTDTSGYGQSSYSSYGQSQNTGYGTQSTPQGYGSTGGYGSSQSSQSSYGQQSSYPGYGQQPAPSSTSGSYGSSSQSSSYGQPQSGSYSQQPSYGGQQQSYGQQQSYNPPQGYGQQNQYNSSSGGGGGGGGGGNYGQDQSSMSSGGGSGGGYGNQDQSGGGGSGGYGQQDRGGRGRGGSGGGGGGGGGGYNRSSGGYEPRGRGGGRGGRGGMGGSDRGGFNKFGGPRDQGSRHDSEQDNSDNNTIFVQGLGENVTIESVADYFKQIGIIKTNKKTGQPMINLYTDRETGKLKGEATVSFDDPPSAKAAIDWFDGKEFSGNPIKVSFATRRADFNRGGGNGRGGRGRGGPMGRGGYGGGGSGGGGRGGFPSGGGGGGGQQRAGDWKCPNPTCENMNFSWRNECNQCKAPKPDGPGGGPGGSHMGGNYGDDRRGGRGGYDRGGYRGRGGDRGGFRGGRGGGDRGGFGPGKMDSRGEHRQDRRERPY


What was measured:
[1] = molecular target: T1, acetyl-CoA acetyltransferase 1 (human (endogenous in LNCaP and PC3)); assay: co-IP; endogenous proteins in LNCaP or PC3 cell lysate; anti-ACAT1 or anti-FUS antibody (8 ug) overnight at 4 °C, anti-mouse/rabbit IgG as control, protein A/G beads, immunoblotting
[2] = molecular target: fused in sarcoma (FUS) RNA-binding protein (human (endogenous in LNCaP and PC3)) (UniProt P35637); assay: as above

| binding [1] | binding [2] | Molecule |
| --- | --- | --- |
| binds |  | fused in sarcoma (FUS) RNA-binding protein (from UniProt P35637 1-526) |
|  | binds | acetyl-CoA acetyltransferase 1 (enzyme, UniProt P24752 34-427) VSKPTLKEVVIVSATRTPIGSFLGSLSLLPATKLGSIAIQGAIEKAGIPKEEVKEAYMGNVLQGGEGQAPTRQAVLGAGLPISTPCTTINKVCASGMKAIMMASQSLMCGHQDVMVAGGMESMSNVPYVMNRGSTPYGGVKLEDLIVKDGLTDVYNKIHMGSCAENTAKKLNIARNEQDAYAINSYTRSKAAWEAGKFGNEVIPVTVTVKGQPDVVVKEDEEYKRVDFSKVPKLKTVFQKENGTVTAANASTLNDGAAALVLMTADAAKRLNVTPLARIVAFADAAVEPIDFPIAPVYAASMVLKDVGLKKEDIAMWEVNEAFSLVVLANIKMLEIDPQKVNINGGAVSLGHPIGMSGARIVGHLTHALKQGEYGLASICNGGGGASAMLIQKL |

Reference: PMC9753422
